# Results are given in words; binding and its absence hold for the method and conditions named. Binding seen in cells or lysates may run through a third protein. Here binding means that the protein was enriched with, or labelled near, the bait; the list need not be complete. For some of these results: No binding means not detected with the bait. Tags and fused reporters may be left off the sequences shown.
# Protein sequences, listed by entry. Tags and fused reporters are not part of them.
# UniProt P0A978: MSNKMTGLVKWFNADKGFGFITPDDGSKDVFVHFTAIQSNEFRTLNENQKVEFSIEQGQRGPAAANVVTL
# UniProt P0A9X9: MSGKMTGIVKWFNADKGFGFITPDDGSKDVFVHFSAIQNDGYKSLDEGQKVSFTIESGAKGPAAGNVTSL
# T1: YdiP with a chromosomal C-terminal FLAG3 tag (E. coli) (UniProt P77402)
# T1 sequence: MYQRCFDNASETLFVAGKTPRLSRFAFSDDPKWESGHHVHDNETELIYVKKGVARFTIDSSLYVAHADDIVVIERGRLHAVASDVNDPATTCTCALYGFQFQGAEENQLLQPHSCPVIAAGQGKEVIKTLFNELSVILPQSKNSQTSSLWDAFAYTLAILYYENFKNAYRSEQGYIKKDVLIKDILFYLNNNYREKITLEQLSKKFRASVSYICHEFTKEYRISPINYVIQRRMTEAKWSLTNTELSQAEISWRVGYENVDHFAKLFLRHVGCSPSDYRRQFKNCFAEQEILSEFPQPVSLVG
# T2: YneJ with a chromosomal C-terminal FLAG3 tag (E. coli) (UniProt P77309)
# T2 sequence: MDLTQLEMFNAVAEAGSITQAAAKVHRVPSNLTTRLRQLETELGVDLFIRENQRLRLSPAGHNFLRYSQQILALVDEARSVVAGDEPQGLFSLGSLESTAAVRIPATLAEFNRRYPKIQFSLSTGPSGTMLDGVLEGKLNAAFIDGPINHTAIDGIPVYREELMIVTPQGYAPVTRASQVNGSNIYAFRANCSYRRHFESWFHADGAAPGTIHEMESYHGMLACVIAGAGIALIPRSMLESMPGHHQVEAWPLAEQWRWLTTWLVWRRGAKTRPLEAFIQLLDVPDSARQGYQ
# Tests used:
# [1] = biological target: T1, YdiP with a chromosomal C-terminal FLAG3 tag (E. coli); experiment: affinity purification with mass spectrometry; endogenously C-terminally FLAG3-tagged YdiP as bait; cells grown in RM at 15 °C; RIPA buffer, MACS microbead purification; n = 3
# [2] = biological target: T1, YdiP with a chromosomal C-terminal FLAG3 tag (E. coli); experiment: affinity purification with mass spectrometry; endogenously C-terminally FLAG3-tagged YdiP as bait; cells grown in RM or MM at 37 °C; RIPA buffer, MACS microbead purification; n = 3
# [3] = biological target: T2, YneJ with a chromosomal C-terminal FLAG3 tag (E. coli); experiment: affinity purification with mass spectrometry; endogenously FLAG3-tagged YneJ as bait; cells grown in LB and M9-putrescine/tryptone medium; lysis in RIPA buffer, MACS microbead purification, Orbitrap Elite
# [4] = biological target: T1, YdiP with a chromosomal C-terminal FLAG3 tag (E. coli); experiment: affinity purification with mass spectrometry; endogenously C-terminally FLAG3-tagged YdiP as bait; cells grown in MM at 15 °C; RIPA buffer, MACS microbead purification; n = 3
Molecule,binding [1],binding [2],binding [3],binding [4]
CspG (from UniProt P0A978 1-70),binds,no binding (only cells grown at 37 °C (RM and MM)),–,–
CspA (from UniProt P0A9X9 1-70),binds,no binding (only cells grown at 37 °C (RM and MM)),–,–
"GlsB (protein, UniProt P0A6W0 1-308) MAVAMDNAILENILRQVRPLIGQGKVADYIPALATVDGSRLGIAICTVDGQLFQAGDAQERFSIQSISKVLSLVVAMRHYSEEEIWQRVGKDPSGSPFNSLVQLEMEQGIPRNPFINAGALVVCDMLQGRLSAPRQRMLEVVRGLSGVSDISYDTVVARSEFEHSARNAAIAWLMKSFGNFHHDVTTVLQNYFHYCALKMSCVELARTFVFLANQGKAIHIDEPVVTPMQARQINALMATSGMYQNAGEFAWRVGLPAKSGVGGGIVAIVPHEMAIAVWSPELDDAGNSLAGIAVLEQLTKQLGRSVY",–,–,binds,–
"CspB (protein, UniProt P36995 1-71) MSNKMTGLVKWFNADKGFGFISPVDGSKDVFVHFSAIQNDNYRTLFEGQKVTFSIESGAKGPAAANVIITD",binds,no binding (only cells grown at 37 °C (RM and MM)),–,–
"CspE (protein, UniProt P0A972 1-69) MSKIKGNVKWFNESKGFGFITPEDGSKDVFVHFSAIQTNGFKTLAEGQRVEFEITNGAKGPSAANVIAL",binds,no binding (only cells grown at 37 °C (RM and MM)),–,binds
"CspI (protein, UniProt P0A986 1-70) MSNKMTGLVKWFNPEKGFGFITPKDGSKDVFVHFSAIQSNDFKTLTENQEVEFGIENGPKGPAAVHVVAL",binds,no binding (only cells grown at 37 °C (RM and MM)),–,–
"GadB (protein, UniProt P69910 1-466) MDKKQVTDLRSELLDSRFGAKSISTIAESKRFPLHEMRDDVAFQIINDELYLDGNARQNLATFCQTWDDENVHKLMDLSINKNWIDKEEYPQSAAIDLRCVNMVADLWHAPAPKNGQAVGTNTIGSSEACMLGGMAMKWRWRKRMEAAGKPTDKPNLVCGPVQICWHKFARYWDVELREIPMRPGQLFMDPKRMIEACDENTIGVVPTFGVTYTGNYEFPQPLHDALDKFQADTGIDIDMHIDAASGGFLAPFVAPDIVWDFRLPRVKSISASGHKFGLAPLGCGWVIWRDEEALPQELVFNVDYLGGQIGTFAINFSRPAGQVIAQYYEFLRLGREGYTKVQNASYQVAAYLADEIAKLGPYEFICTGRPDEGIPAVCFKLKDGEDPGYTLYDLSERLRLRGWQVPAFTLGGEATDIVVMRIMCRRGFEMDFAELLLEDYKASLKYLSDHPKLQGIAQQNSFKHT",–,–,binds,–
"PuuA (protein, UniProt P78061 1-472) METNIVEVENFVQQSEERRGSAFTQEVKRYLERYPNTQYVDVLLTDLNGCFRGKRIPVSSLKKLEKGCYFPASVFAMDILGNVVEEAGLGQEMGEPDRTCVPVLGSLTPSAADPEFIGQMLLTMVDEDGAPFDVEPRNVLNRLWQQLRQRGLFPVVAVELEFYLLDRQRDAEGYLQPPCAPGTDDRNTQSQVYSVDNLNHFADVLNDIDELAQLQLIPADGAVAEASPGQFEINLYHTDNVLEACDDALALKRLVRLMAEKHKMHATFMAKPYEEHAGSGMHIHISMQNNRGENVLSDAEGEDSPLLKKMLAGMIDLMPSSMALLAPNVNSYRRFQPGMYVPTQASWGHNNRTVALRIPCGDRHNHRVEYRVAGADANPYLVMAAIFAGILHGLDNELPLQEEVEGNGLEQEGLPFPIRQSDALGEFIENDHLRRYLGERFCHVYHACKNDELLQFERLITETEIEWMLKNA",–,–,binds,–
"PuuC (protein, UniProt P23883 1-495) MNFHHLAYWQDKALSLAIENRLFINGEYTAAAENETFETVDPVTQAPLAKIARGKSVDIDRAMSAARGVFERGDWSLSSPAKRKAVLNKLADLMEAHAEELALLETLDTGKPIRHSLRDDIPGAARAIRWYAEAIDKVYGEVATTSSHELAMIVREPVGVIAAIVPWNFPLLLTCWKLGPALAAGNSVILKPSEKSPLSAIRLAGLAKEAGLPDGVLNVVTGFGHEAGQALSRHNDIDAIAFTGSTRTGKQLLKDAGDSNMKRVWLEAGGKSANIVFADCPDLQQAASATAAGIFYNQGQVCIAGTRLLLEESIADEFLALLKQQAQNWQPGHPLDPATTMGTLIDCAHADSVHSFIREGESKGQLLLDGRNAGLAAAIGPTIFVDVDPNASLSREEIFGPVLVVTRFTSEEQALQLANDSQYGLGAAVWTRDLSRAHRMSRRLKAGSVFVNNYNDGDMTVPFGGYKQSGNGRDKSLHALEKFTELKTIWISLEA",–,–,binds,–
"PuuE (protein, UniProt P50457 1-421) MSNNEFHQRRLSATPRGVGVMCNFFAQSAENATLKDVEGNEYIDFAAGIAVLNTGHRHPDLVAAVEQQLQQFTHTAYQIVPYESYVTLAEKINALAPVSGQAKTAFFTTGAEAVENAVKIARAHTGRPGVIAFSGGFHGRTYMTMALTGKVAPYKIGFGPFPGSVYHVPYPSDLHGISTQDSLDAIERLFKSDIEAKQVAAIIFEPVQGEGGFNVAPKELVAAIRRLCDEHGIVMIADEVQSGFARTGKLFAMDHYADKPDLMTMAKSLAGGMPLSGVVGNANIMDAPAPGGLGGTYAGNPLAVAAAHAVLNIIDKESLCERANQLGQRLKNTLIDAKESVPAIAAVRGLGSMIAVEFNDPQTGEPSAAIAQKIQQRALAQGLLLLTCGAYGNVIRFLYPLTIPDAQFDAAMKILQDALSD",–,–,binds,–
"GabT (protein, UniProt P22256 1-426) MNSNKELMQRRSQAIPRGVGQIHPIFADRAENCRVWDVEGREYLDFAGGIAVLNTGHLHPKVVAAVEAQLKKLSHTCFQVLAYEPYLELCEIMNQKVPGDFAKKTLLVTTGSEAVENAVKIARAATKRSGTIAFSGAYHGRTHYTLALTGKVNPYSAGMGLMPGHVYRALYPCPLHGISEDDAIASIHRIFKNDAAPEDIAAIVIEPVQGEGGFYASSPAFMQRLRALCDEHGIMLIADEVQSGAGRTGTLFAMEQMGVAPDLTTFAKSIAGGFPLAGVTGRAEVMDAVAPGGLGGTYAGNPIACVAALEVLKVFEQENLLQKANDLGQKLKDGLLAIAEKHPEIGDVRGLGAMIAIELFEDGDHNKPDAKLTAEIVARARDKGLILLSCGPYYNVLRILVPLTIEDAQIRQGLEIISQCFDEAKQ",–,–,binds,–
"Sad (protein, UniProt P76149 1-462) MTITPATHAISINPATGEQLSVLPWAGADDIENALQLAAAGFRDWRETNIDYRAEKLRDIGKALRARSEEMAQMITREMGKPINQARAEVAKSANLCDWYAEHGPAMLKAEPTLVENQQAVIEYRPLGTILAIMPWNFPLWQVMRGAVPIILAGNGYLLKHAPNVMGCAQLIAQVFKDAGIPQGVYGWLNADNDGVSQMIKDSRIAAVTVTGSVRAGAAIGAQAGAALKKCVLELGGSDPFIVLNDADLELAVKAAVAGRYQNTGQVCAAAKRFIIEEGIASAFTERFVAAAAALKMGDPRDEENALGPMARFDLRDELHHQVEKTLAQGARLLLGGEKMAGAGNYYPPTVLANVTPEMTAFREEMFGPVAAITIAKDAEHALELANDSEFGLSATIFTTDETQARQMAARLECGGVFINGYCASDARVAFGGVKKSGFGRELSHFGLHEFCNIQTVWKDRI",–,–,binds,–
"GabD (protein, UniProt P25526 1-482) MKLNDSNLFRQQALINGEWLDANNGEAIDVTNPANGDKLGSVPKMGADETRAAIDAANRALPAWRALTAKERATILRNWFNLMMEHQDDLARLMTLEQGKPLAEAKGEISYAASFIEWFAEEGKRIYGDTIPGHQADKRLIVIKQPIGVTAAITPWNFPAAMITRKAGPALAAGCTMVLKPASQTPFSALALAELAIRAGVPAGVFNVVTGSAGAVGNELTSNPLVRKLSFTGSTEIGRQLMEQCAKDIKKVSLELGGNAPFIVFDDADLDKAVEGALASKFRNAGQTCVCANRLYVQDGVYDRFAEKLQQAVSKLHIGDGLDNGVTIGPLIDEKAVAKVEEHIADALEKGARVVCGGKAHERGGNFFQPTILVDVPANAKVSKEETFGPLAPLFRFKDEADVIAQANDTEFGLAAYFYARDLSRVFRVGEALEYGIVGINTGIISNEVAPFGGIKASGLGREGSKYGIEDYLEIKYMCIGL",–,–,binds,–

# Reference: publication PMC9283627, “Auxotrophic and prototrophic conditional genetic networks reveal the rewiring of transcription factors in Escherichia coli”
